Results as given in PubChem BioAssay AID540276 (National Center for Advancing Translational Sciences (NCATS), 2011).
Where “and” joins values, the source holds several entries; their conditions need not be identical. Equal values may be shown once. Among all 300,000 compounds or so, about 5,400 (1.8%) were called active. Inconclusive results, whose numbers are uncertain, are shown with a selection of clear calls. Calls come from the whole dose curve; tested in HEK293 cells. Where the call is inconclusive, the potency comes from a doubtful curve fit.
% is set by controls: 0 for no effect and ±100 for the full control effect; potency is the fitted concentration of half-maximal effect.

Test: qHTS for inhibitors of binding or entry into cells for Marburg Virus
Conditions: Marburg virus pseudotyped entry inhibition, cell reporter; activity change, negative = inhibition: at 37.8 µM (top of the series) unless noted
For CC1CN(CC(=O)Nc2ccccc2Sc2ccccc2)CC(C)O1 (centres undefined), the Potency was inconclusive: 0.251 µM [activator, partial curve, poor fit].
For Cc1ccc(C(=O)N2CCN(S(=O)(=O)c3ccc(C(C)C)cc3)CC2)s1, the “activity change, negative = inhibition” value was inactive: -29.3%.
With O=C(N/N=C/c1ccccc1)c1n[nH]c2c1CCCC2 the Potency was inconclusive: 10 µM [inhibitor, partial curve, poor fit].
In the case of O=c1oc2cc(O[C@@H]3OC[C@@H](O)[C@H](O)[C@H]3O)ccc2c2ccccc12, the Potency is reported as inconclusive: 10 µM [inhibitor, partial curve, poor fit].
With Cc1ccc(C)c(OCc2cc(C(=O)N3C[C@@H](C)O[C@@H](C)C3)no2)c1 the Potency was inconclusive: 4.47 µM [activator, single point].
With Cn1cccc1CC(=O)N/N=C/c1ccc(C(C)(C)C)cc1 the Potency was inconclusive: 6.31 µM [activator, single point].
For COc1ccccc1N1CCN(CC(=O)c2c(C)[nH]c3cc(C)ccc23)CC1, the Potency was inconclusive: 20 µM [inhibitor, partial curve, poor fit].
For C#CCSc1[nH]c(=O)cc(C)c1C#N, the Potency was inconclusive: 11.2 µM [activator, partial curve, poor fit].
In the case of Cc1ccccc1OCC(=O)Nc1ccc2c(c1)C(=O)c1ccccc1C2=O, the Potency is reported as inconclusive: 32.6 µM [inhibitor, single point].
In the case of Cc1cc(C)c(S(=O)(=O)N2CCOC2CNC(=O)C(=O)NCCN2CCOCC2)c(C)c1 (centres undefined), the Potency is reported as inconclusive: 35.5 µM [activator, single point].
With CC(C)S(=O)(=O)c1csc(NC(=O)Nc2ccc(Cl)cc2)c1 the Potency was inconclusive: 25.1 µM [activator, partial curve, poor fit].
For CCc1ccc2c(c1)c(=O)c(S(=O)(=O)c1ccccc1)cn2CC(=O)Nc1cc(C)ccc1C, the “activity change, negative = inhibition” value was inactive: 5.12% [at 46.1 µM].
With N#C/C(=C\c1ccc(Cl)c([N+](=O)[O-])c1)c1ccccn1 the Potency was inconclusive: 11.2 µM [inhibitor, partial curve, poor fit].
With CCCN(CC(=O)Nc1ccccc1OC)C(=O)CCCN1C(=O)c2ccccc2C1=O the “activity change, negative = inhibition” value was inactive: -11.2%.
In the case of COc1ccc(Cl)cc1NC(=O)c1cc(=O)c2cc(C)cc(C)c2o1, the Potency is reported as inconclusive: 1.12 µM [inhibitor, full curve, poor fit].
In the case of O=C(NCc1ccco1)c1ccc(N2CCOCC2)c([N+](=O)[O-])c1, the “activity change, negative = inhibition” value is reported as inactive: -18% [at 46.1 µM].
With COc1ccc(Br)cc1/C=c1\sc2nc(-c3ccco3)nn2c1=O the Potency was “inactive”.
For CCOC(=O)N1CCN(C(=O)c2ccc(C)c(S(=O)(=O)Nc3ccccc3)c2)CC1, the Potency was inconclusive: 35.5 µM [inhibitor, single point].
In the case of CN1CCN(Cc2c(O)ccc3c(-c4ccccc4)cc(=O)oc23)CC1, the Potency is reported as “inactive”.
In the case of CN(CCC1CCCCO1)C(=O)CCc1nnc(CCc2ccccc2)o1 (centres undefined), the Potency is reported as inconclusive: 2.51 µM [activator, full curve, poor fit].
In the case of Cc1cc2nc(CSc3ccc(Cl)cc3)cc(=O)n2[nH]1, the “activity change, negative = inhibition” value is reported as inactive: 11.9% [at 46.1 µM].
For O=C(CO/N=C/c1ccc(OC(F)F)cc1)NC1CCCC1, the Potency was inconclusive: 0.562 µM [inhibitor, full curve, poor fit].
With CC(=NNC(=S)N1CCN(C2CCCCCC2)CC1)c1ccccn1 the Potency was inconclusive: 0.1 µM [inhibitor, full curve, poor fit].
In the case of CN1CCN(NC(=O)CC(C)(C)C)CC1, the “activity change, negative = inhibition” value is reported as inactive: 7.91% [at 46.1 µM].
For CC(C)c1ccc2[nH]c(O)c(N=NC(=S)NCCc3ccccc3)c2c1, the “activity change, negative = inhibition” value was inactive: 2.76%.
With Cc1ccc2cc(C(c3nnnn3C3CCCC3)N(Cc3ccccc3)Cc3ccco3)c(=O)[nH]c2c1 (centres undefined) the Potency was “inactive and inconclusive: 18.3 µM [inhibitor, partial curve, poor fit]”.
For C/C(=N\NC(=S)NC1CCCCC1)c1cccs1, the Potency was inconclusive: 10 µM [inhibitor, single point].
With COc1ccc(NC(NC(=O)c2ccc(OC)cc2)C(Cl)(Cl)Cl)cc1 (centres undefined) the Potency was inconclusive: 0.178 µM [inhibitor, full curve, poor fit].
In the case of CC1CCN(C(=O)C(Cc2ccccc2)NS(=O)(=O)c2ccc3c(c2)oc(=O)n3C)CC1 (centres undefined), the “activity change, negative = inhibition” value is reported as inactive: 2.6%.
For CC1(C)Cc2c(ccc3ccccc23)C(c2cc3ccccc3oc2=O)=N1, the Potency was active: 5.8 µM.
In the case of O=C(NCCC1CCCCN1S(=O)(=O)c1ccccc1)C(=O)NCc1ccccn1 (centres undefined), the “activity change, negative = inhibition” value is reported as inactive: -1.05%.
With COC(CNC(=O)c1ccc2c(c1)ncn2-c1cc(C)cc(C)c1)OC the “activity change, negative = inhibition” value was inactive: 0.48% [at 46.1 µM].
For O=C(Nc1ccc2nc3n(c(=O)c2c1)CCCC3)c1cc([N+](=O)[O-])ccc1F, the Potency was active: 7.08 µM.
In the case of O=C(CSCc1ccc(Cl)cc1)Nc1cc([N+](=O)[O-])ccc1O, the Potency is reported as inconclusive: 1 µM [inhibitor, partial curve, poor fit].
